From PMC7819943, “Rice protein-binding microarrays: a tool to detect cis-acting elements near promoter regions in rice”
The other results are listed elsewhere or left out.

Protein sequences, listed by entry. Tags and fused reporters are not part of them.
UniProt Q0JBA9, entry or part of it: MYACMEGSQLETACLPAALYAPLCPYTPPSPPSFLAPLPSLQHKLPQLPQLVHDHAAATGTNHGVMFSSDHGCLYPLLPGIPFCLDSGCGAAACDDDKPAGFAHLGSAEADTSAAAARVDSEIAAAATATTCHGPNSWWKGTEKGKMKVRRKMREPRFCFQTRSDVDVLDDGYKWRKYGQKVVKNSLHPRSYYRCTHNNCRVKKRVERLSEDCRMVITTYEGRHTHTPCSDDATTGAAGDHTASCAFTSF

Target: OsWRKY34 (Oryza sativa, UniProt Q0JBA9 1-250)
Experiment: protein-binding microarray (RPBM); PBS, 2% BSA, 51.3 ng/ul salmon testes DNA, 50 uM zinc acetate, 200 nM TF, 25 C, 1 h; high values mean tight binding
Details: protein: recombinant; tags: N-terminal polyhistidine and DsRed monomer fusion (pET32a); label: CyDye5-dUTP incorporated in the synthesized complementary strand; 3' TTTTT single-stranded linker to array surface; dsDNA, one strand shown
In short: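 Ni–NTA purification followed expression in E. coli BL21-CodonPlus of transcription factors fused N-terminally to a polyhistidine tag and DsRed. At 200 nM in PBS with 2% BSA, salmon testes DNA and 50 µM zinc acetate, the protein was incubated for 1 h at 25 °C with a custom Agilent array that had been primer-extended with Cy5-dUTP and blocked with 2% BSA. After washing, the array was read on an Axon 4000B scanner. The binding signal is per-feature fluorescence intensity in arbitrary units.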

In order of falling binding signal:
1. TGCCACCACCTTACCCTTTGCCAACATGCATCCGCTCCAACGGAGTCACCTAGTGCAG  19100 fluorescence intensity (a.u.)
2. GCTTCACCTTCGGCTTCGACTTCGGCTTCGTTTCCTCTTCCGGAGTCACCTAGTGCAG  18600 fluorescence intensity (a.u.)
3. GACGCCGTTGATTTTTTCTCACATGTTTGACCATTCGTCTCGGAGTCACCTAGTGCAG  18000 fluorescence intensity (a.u.)
4. TCCCTAAATGTTTGACACCGTTGACCTTTTTAAAACATTTCGGAGTCACCTAGTGCAG  17800 fluorescence intensity (a.u.)
5. TCGGTGGGTGCCGGGCGGAGCGGTTTTTGAGGGAGGGGTCCGGAGTCACCTAGTGCAG  17600 fluorescence intensity (a.u.)
6. TACAAATACATTGCTTTTTGGGTGGGTTGTTTTTTCAGCACGGAGTCACCTAGTGCAG  15300 fluorescence intensity (a.u.)
7. GGTCTGGTTTTCCGTGTGTGCACGGTCGGGGTGCGCGTGGCGGAGTCACCTAGTGCAG  14300 fluorescence intensity (a.u.)
8. CGCTTGTACTGATTTGGTTTTGGTTGCTGGGTTGGATGGTCGGAGTCACCTAGTGCAG  13300 fluorescence intensity (a.u.)
9. GATTCCCGCGAAACCAGTTGGTTTCCTTTCCCCGCGGATTCGGAGTCACCTAGTGCAG  12600 fluorescence intensity (a.u.)
10. TTAATTATTTCTTGGTATTTGGGTTAAGGGTGGTTGTGCCCGGAGTCACCTAGTGCAG  12600 fluorescence intensity (a.u.)
11. TTTCTGTCTACATTACCACCGCCTGTGCCTCCGCCGCGGCCGGAGTCACCTAGTGCAG  12400 fluorescence intensity (a.u.)
12. ACTCTCATCCATACATACATGTCATCTAATCTATATATTCCGGAGTCACCTAGTGCAG  12200 fluorescence intensity (a.u.)
13. CTCAGATTAAAGGGGTGGGTACTTCGGGAATGAAGAATAGCGGAGTCACCTAGTGCAG  12100 fluorescence intensity (a.u.)
14. CAATTATCCTCTGTGCTGTTTGACATTTTCTTGGTTAGTGCGGAGTCACCTAGTGCAG  12000 fluorescence intensity (a.u.)
15. CTATCCTGTGCATTCGTGCCTCCTTCAGGCCTTGTTTTTCCGGAGTCACCTAGTGCAG  11800 fluorescence intensity (a.u.)
16. CCTCGTGCTTTCCTGCCTTGCCGCTGCGTCGCTCTCGCTCCGGAGTCACCTAGTGCAG  11600 fluorescence intensity (a.u.)
17. GTAATTAATTAACAACTCACCGTCCTTATATAATTGTTTTCGGAGTCACCTAGTGCAG  10900 fluorescence intensity (a.u.)
18. CCACGTGGGCCCCACGAGTCATTCTCACCCCTCATCTTCTCGGAGTCACCTAGTGCAG  10900 fluorescence intensity (a.u.)
19. CCAACCAACCAACCATCCTTTTGCTTTTGCATCTCACACTCGGAGTCACCTAGTGCAG  10500 fluorescence intensity (a.u.)
20. ACCCTAGCTACTACCTTAGCTCGCATTGATCCATCCATCCCGGAGTCACCTAGTGCAG  10400 fluorescence intensity (a.u.)
21. TACAACCTTATTTTTTTCATTTATGCTTATACTTGTACTTCGGAGTCACCTAGTGCAG  10400 fluorescence intensity (a.u.)
22. GACCCCGCTCACCCAAAGCTTTCCCTGCTGTCGTTGCTCTCGGAGTCACCTAGTGCAG  10300 fluorescence intensity (a.u.)
23. CGACTATAAAGTGGTTTCCCATTTTCTGCTGTATTTTGACCGGAGTCACCTAGTGCAG  10100 fluorescence intensity (a.u.)
24. CCACCCACACCGCCTCGCGTCCCCATCCATCACCGTCCATCGGAGTCACCTAGTGCAG  10000 fluorescence intensity (a.u.)
25. GGTCCTGTGTAATTTTCTTCCGCGATGGCCACACGTGACGCGGAGTCACCTAGTGCAG  9990 fluorescence intensity (a.u.)
26. CCCACCTACCTACAGTACTCCACCAGATCAATCCCAACACCGGAGTCACCTAGTGCAG  9890 fluorescence intensity (a.u.)
27. CACACCTCCCACGGTCCGGTCCTCACTCCTCCCGCGCGCGCGGAGTCACCTAGTGCAG  9880 fluorescence intensity (a.u.)
28. CGCCACAACGGGTTTAGCTCTGTTCCGCTATTCGGCCCATCGGAGTCACCTAGTGCAG  9640 fluorescence intensity (a.u.)
29. GTTTTGTTGTTCTTTGTCATATATGTGGTTGGTTCCTACCCGGAGTCACCTAGTGCAG  9610 fluorescence intensity (a.u.)
30. CAGGCCACACACGTCGATGACTCCACCAGCCGTTATTCTTCGGAGTCACCTAGTGCAG  9560 fluorescence intensity (a.u.)
31. TGTAATTAGTTATTTTTTTCGTTTATATTTAATACTCTATCGGAGTCACCTAGTGCAG  9460 fluorescence intensity (a.u.)
32. TCCTCCCGCACCTCGGCGTACCTCACCCGCCTCCGGACGACGGAGTCACCTAGTGCAG  9350 fluorescence intensity (a.u.)
33. TTTTGTGCTGTTACTAGCTCCTTGTTCTTGCCCTTTCAGCCGGAGTCACCTAGTGCAG  9340 fluorescence intensity (a.u.)
34. CGTCCGTCCGGCGACCCGGTTTGACCCACCCCAGTAGCGTCGGAGTCACCTAGTGCAG  9280 fluorescence intensity (a.u.)
35. AAGTTGATTTAAGTTTTTTTTACTATAGTTTATTTTCCAGCGGAGTCACCTAGTGCAG  9220 fluorescence intensity (a.u.)
36. GACGTACCAACTCAGCACTCAGCACTGCTTCCTTTTTCATCGGAGTCACCTAGTGCAG  9020 fluorescence intensity (a.u.)
37. GTTCCTTCCGTGTTTTCATACTCAAAGTCTCAAACCCAGCCGGAGTCACCTAGTGCAG  9020 fluorescence intensity (a.u.)
38. GTTGTTATGTGTGTGGGTGTGTGAGGGAGTTTGCACTGCACGGAGTCACCTAGTGCAG  8980 fluorescence intensity (a.u.)
39. GCTGTACTGCTCTGCCACCACTTCTCCACTCCACTCCACTCGGAGTCACCTAGTGCAG  8970 fluorescence intensity (a.u.)
40. CGTCGTCGCTGCCGTGAGGGGTGGCCGGGCGGCGGGGCAACGGAGTCACCTAGTGCAG  8950 fluorescence intensity (a.u.)
41. GGAATTGCCTCGTTCCATATCTGCTTTATCTAGCTTGCTACGGAGTCACCTAGTGCAG  8880 fluorescence intensity (a.u.)
42. TTCGGTTTCGTGGCGGTTGCGTTTCCTCCTCTCTCTTTTCCGGAGTCACCTAGTGCAG  8800 fluorescence intensity (a.u.)
43. TATTATTTAAGTCGTGTTGGCTTGAAGCATGCATAATTTGCGGAGTCACCTAGTGCAG  8790 fluorescence intensity (a.u.)
44. GCTATCTTTACCTGTGTTACATTGCCAGCAGTTACATTCTCGGAGTCACCTAGTGCAG  8770 fluorescence intensity (a.u.)
45. AGACCCTGCCTACAACCTCCGGGCAAATGTGCAGCAGCAACGGAGTCACCTAGTGCAG  8760 fluorescence intensity (a.u.)
46. TTTTGGGATGTGTTTTCTTATTTTTCTTATGCATGTAGCACGGAGTCACCTAGTGCAG  8730 fluorescence intensity (a.u.)
47. TATTGTGAATACCATACACTGAGATTTTACACACCGACTCCGGAGTCACCTAGTGCAG  8720 fluorescence intensity (a.u.)
48. TCGCTCGGTTAGACCGTCCACTTCCACACTCACCAGTCACCGGAGTCACCTAGTGCAG  8710 fluorescence intensity (a.u.)
49. AAAACACAAATTAACCCGGCATAAGCTCTCCAGCCATCCACGGAGTCACCTAGTGCAG  8680 fluorescence intensity (a.u.)
50. CATATCCTGTACAAATCCGGGAATCGCGTACTCTCACAATCGGAGTCACCTAGTGCAG  8670 fluorescence intensity (a.u.)
51. GCGGTACCGTGGGTGAAAGGGTACTTCTGTACTTTCGCGTCGGAGTCACCTAGTGCAG  8670 fluorescence intensity (a.u.)
52. TATGGATCTCATGCAATTTCTTTCTGCTTTTCTAGGATATCGGAGTCACCTAGTGCAG  8650 fluorescence intensity (a.u.)
53. CAAAAATCTGTCTGTAACATGTTATTTCGGTAAAATGGAGCGGAGTCACCTAGTGCAG  8640 fluorescence intensity (a.u.)
54. CGATCCCTGCTCTGTTTTCGAACTCGATCTCTGCCTCCGACGGAGTCACCTAGTGCAG  8630 fluorescence intensity (a.u.)
55. TGTTAATTTTTGATCTGCTACACTGGTGCCTGTTTCTACACGGAGTCACCTAGTGCAG  8620 fluorescence intensity (a.u.)
56. ATCCTCTTCTTCTCTTCTCCTCTTCTCTTCACATTCTCTTCGGAGTCACCTAGTGCAG  8530 fluorescence intensity (a.u.)
57. TCTCTCTCTCCAATTTGCTCCAATCTTTAATTTCCTGCCTCGGAGTCACCTAGTGCAG  8480 fluorescence intensity (a.u.)
58. TTCGGGCATACGCCACCCCGCCTTGTCATCCACCGCGCCCCGGAGTCACCTAGTGCAG  8470 fluorescence intensity (a.u.)
59. GTCGATGTGTGATGGTGGAATTTTTTCTTCTTTCCTAGCTCGGAGTCACCTAGTGCAG  8360 fluorescence intensity (a.u.)
60. TCTACATGTTTGCTGCTGGATTTTACACATATTCCATCTTCGGAGTCACCTAGTGCAG  8340 fluorescence intensity (a.u.)
61. TACTCTCTCTCATGATATCTGTCTGTCGCACACGGACACGCGGAGTCACCTAGTGCAG  8320 fluorescence intensity (a.u.)
62. CCGGTGTTCGTTATCGTCGTCTCCGTTCGTCCTCGTCGACCGGAGTCACCTAGTGCAG  8310 fluorescence intensity (a.u.)
63. CCAAATGCCCTTCTTAGGTTTGTGCTTAATAATTTGCCACCGGAGTCACCTAGTGCAG  8300 fluorescence intensity (a.u.)
64. CTTGTTTGGTGTGTTCAACTTGTCTTGAACTATACTCTCTCGGAGTCACCTAGTGCAG  8290 fluorescence intensity (a.u.)
65. AGACTGACTTCCGTCGATTTCGAGGGTAACTTTTATTTCCCGGAGTCACCTAGTGCAG  8280 fluorescence intensity (a.u.)
66. TTACTCGCCACCATAGTTTCTATAAGCACACTTTCATAGTCGGAGTCACCTAGTGCAG  8260 fluorescence intensity (a.u.)
67. AACCCGTAAAACCCACTTATCCACTCTTGCACAATCACATCGGAGTCACCTAGTGCAG  8240 fluorescence intensity (a.u.)
68. CGTAGAAGGGATTGGGTGAAATTACATGGGCATATAGGGACGGAGTCACCTAGTGCAG  8220 fluorescence intensity (a.u.)
69. TACGCCTCATAGCCGCATCACCCCGATCCCCTCCGTCATCCGGAGTCACCTAGTGCAG  8220 fluorescence intensity (a.u.)
70. AAACACACTGATCTCGATCATCCTCATTGCAAATCACATTCGGAGTCACCTAGTGCAG  8200 fluorescence intensity (a.u.)
71. CCATGTATGTGGGCTACCTTAAATTCAGGTTATTTCTTTACGGAGTCACCTAGTGCAG  8192 fluorescence intensity (a.u.)
72. TGCGGGGCGCAAGGCGCGCGGTAGGGGAGGGGTTAGCGCTCGGAGTCACCTAGTGCAG  8190 fluorescence intensity (a.u.)
73. GCCCCACACCCCGACGAAGCAAAGCATCCCACCAAACAAACGGAGTCACCTAGTGCAG  8190 fluorescence intensity (a.u.)
74. GGTCGGTCGCTCTCTCTCGCTCCTCGGCTCCTCTCCATTTCGGAGTCACCTAGTGCAG  8160 fluorescence intensity (a.u.)
75. AGGGATTTTGAGTTTTTGCTTGCACGATTTGACTACTCGTCGGAGTCACCTAGTGCAG  8160 fluorescence intensity (a.u.)
76. CACCACAGCTTCCCGTTCCTGCTCCCGGCGCGGCGAACCACGGAGTCACCTAGTGCAG  8160 fluorescence intensity (a.u.)
77. CTTTTACCAGTTGTATATTGAACTTCTGCTATGAAACTTGCGGAGTCACCTAGTGCAG  8150 fluorescence intensity (a.u.)
78. TCTCGATCTCCCCGCCTATTTATGCTCGTCTCGTCACCCGCGGAGTCACCTAGTGCAG  8140 fluorescence intensity (a.u.)
79. CTCCCGAGGAAGATGACGAGGAGTCAGTCAACAGTTGACTCGGAGTCACCTAGTGCAG  8130 fluorescence intensity (a.u.)
80. AAAGTCGTCATCACCCATAGAGCATCATAGCAATAATCTACGGAGTCACCTAGTGCAG  8130 fluorescence intensity (a.u.)
81. ATATGTTGAAACTTTCTCTATGTTACATCTGCTTTCTAATCGGAGTCACCTAGTGCAG  8120 fluorescence intensity (a.u.)
82. GCTACCGCCCGCGCGTCCCTCCACCCCACCCACGCGGTTTCGGAGTCACCTAGTGCAG  8110 fluorescence intensity (a.u.)
83. ATAAAATTTCTGATTAATTACTCCACTGTTTTACTTCTCTCGGAGTCACCTAGTGCAG  8090 fluorescence intensity (a.u.)
84. TTTGAGTTGGTTTTGAGATTTTTTTCATTGTAATTTATTTCGGAGTCACCTAGTGCAG  8050 fluorescence intensity (a.u.)
